According to patent publication EP4714976A1:
Results are given in words; binding and its absence hold for the method and conditions named. Some binding calls cover weakened binding; strength is not graded here. Sequences can lack the tags named with a protein.

Protein sequences, listed by entry. Tags and fused reporters are not part of them. Lines headed by an entry give the natural chain unless they say otherwise; changes in a name come on top. Chains listed by the source or under a name are the forms on record and can include a tag or linker.
human FGFR2b (Kaixia Biotechnology, catalog number FGR-HM1BB) (P21802, form named): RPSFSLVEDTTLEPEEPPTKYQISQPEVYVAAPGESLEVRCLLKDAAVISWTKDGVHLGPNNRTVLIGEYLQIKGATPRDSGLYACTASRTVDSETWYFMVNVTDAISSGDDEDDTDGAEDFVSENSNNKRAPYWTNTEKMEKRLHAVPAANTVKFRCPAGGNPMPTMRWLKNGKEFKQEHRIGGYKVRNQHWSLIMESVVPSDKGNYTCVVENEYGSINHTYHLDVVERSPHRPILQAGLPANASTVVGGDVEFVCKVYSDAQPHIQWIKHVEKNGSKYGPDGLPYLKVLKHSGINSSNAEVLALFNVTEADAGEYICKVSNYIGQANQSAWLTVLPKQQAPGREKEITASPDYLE

Target: human FGFR2b (Kaixia Biotechnology, catalog number FGR-HM1BB) (human) (UniProt P21802)
Experiment: ELISA, antibody 1ug/mL

binding	Binder
binds	3A3 scFv-Fc (Fc fusion) QVQLQQSGAELVKPGASVKMSCKASGYTFTTYNIHWVRQTPGQGLEWIGLIYPDNGDTSYNQKFKAKATLTADKSSSTAYMHLSSLTSEDSAVYYCARGGFDYWGQGTTLTVSSGGGGSGGGGSGGGGSDIVMTQSHKFMSTSVGDRVSITCKASQDVNTDVSWYQQKPGQSPKLLIYSASYRYTGVPTRFTGSGSGTDFTFTISGVQAEDLADYYCQQHYNTPYTFGGGTRLEIKESKYGPPCPPCPAPEAAGGPSVFLFPPKPKDTLMISRTPEVTCVVVDVSQEDPEVQFNWYVDGVEVHNAKTKPREEQFNSTYRVVSVLTVLHQDWLNGKEYKCKVSNKGLPSSIEKTISKAKGQPREPQVYTLPPSQEEMTKNQVSLTCLVKGFYPSDIAVEWESNGQPENNYKTTPPVLDSDGSFFLYSKLTVDKSRWQEGNVFSCSVMHEALHNHYTQKSLSLSLG
binds	1C10 scFv-Fc (Fc fusion) QVQLQQSGAELVKPGASVKMSCKASGYTFRYYNMHWVKRTPGQGLEWIGLIYPDNGDTSYNQKFKGKATLTADTSSSTAYMQLSSLTSEDSAVYYCARGGLDYWGQGTSLTVSSGGGGSGGGGSGGGGSDIVMTQSPASLSASVGETVTITCRASGNIHNYLAWYQQKQGKSPQLLVYNAKTLADGVPSRFSGSGSGTQYSLKINSLQPEDFGSYYCQHFWSTPYTFGGGTKLEMKESKYGPPCPPCPAPEAAGGPSVFLFPPKPKDTLMISRTPEVTCVVVDVSQEDPEVQFNWYVDGVEVHNAKTKPREEQFNSTYRVVSVLTVLHQDWLNGKEYKCKVSNKGLPSSIEKTISKAKGQPREPQVYTLPPSQEEMTKNQVSLTCLVKGFYPSDIAVEWESNGQPENNYKTTPPVLDSDGSFFLYSKLTVDKSRWQEGNVFSCSVMHEALHNHYTQKSLSLSLG
binds	1D7 scFv-Fc (Fc fusion) QIQLQQSGAELVKPGASVKMSCKASGYTFRYYNMHWVKRTPGQGLEWIGLIYPDNGDTSYNQKFKGKATLTADTSSSTAYMQLSSLTSEDSAVYYCARGGLDYWGQGTSLTVSSGGGGSGGGGSGGGGSDIQMTQSPSSMSASLGDRITITCQATQDIVKNLNWYQQKPGKPPSFLIYYATELAEGVPSRFSGSGSGSDYSLTISNLESEDFADYYCLQFYEFPLTFGAGTKLELKESKYGPPCPPCPAPEAAGGPSVFLFPPKPKDTLMISRTPEVTCVVVDVSQEDPEVQFNWYVDGVEVHNAKTKPREEQFNSTYRVVSVLTVLHQDWLNGKEYKCKVSNKGLPSSIEKTISKAKGQPREPQVYTLPPSQEEMTKNQVSLTCLVKGFYPSDIAVEWESNGQPENNYKTTPPVLDSDGSFFLYSKLTVDKSRWQEGNVFSCSVMHEALHNHYTQKSLSLSLG
binds	3B4 scFv-Fc (Fc fusion) EVQLQQSGADLVKPGASVKMSCKASGYTFSYYNMHWVRRTPGQGLEWIGLIYPDNGDTSYNQKFKGKATLTADTSSSTAYMQLSSLTSEDSAVYYCARGGLDYWGQGTTLTVSSGGGGSGGGGSGGGGSDIQMIQSPASMSASVGETVTITCGASENIYGALNWYQRKQGKSPQLLIYGATNLADGMSSRFSGSGSGRQYSLKISSLHPDDVATYYCQNVLSTPYTFGGGTKLEMKESKYGPPCPPCPAPEAAGGPSVFLFPPKPKDTLMISRTPEVTCVVVDVSQEDPEVQFNWYVDGVEVHNAKTKPREEQFNSTYRVVSVLTVLHQDWLNGKEYKCKVSNKGLPSSIEKTISKAKGQPREPQVYTLPPSQEEMTKNQVSLTCLVKGFYPSDIAVEWESNGQPENNYKTTPPVLDSDGSFFLYSKLTVDKSRWQEGNVFSCSVMHEALHNHYTQKSLSLSLG
binds	3B7 scFv-Fc (Fc fusion) EVQLQQSGAELVKPGASVKMSCKASGYTFRYYNMHWVKRTPGQGLEWIGLIYPDNGDTSYNQKFKGKATLTADTSSSTAYMQLSSLTSEDSAVYYCARGGFDYWGQGTTLTVSSGGGGSGGGGSGGGGSDIQMTQSPASLSASVGETVTITCGASENIYGALNWYQRKQGKSPQLLIYGATNLADGMSSRFSGSGSGRQYSLKISSLHPDDVATYYCQNVLSTPYTFGGGTKLELKESKYGPPCPPCPAPEAAGGPSVFLFPPKPKDTLMISRTPEVTCVVVDVSQEDPEVQFNWYVDGVEVHNAKTKPREEQFNSTYRVVSVLTVLHQDWLNGKEYKCKVSNKGLPSSIEKTISKAKGQPREPQVYTLPPSQEEMTKNQVSLTCLVKGFYPSDIAVEWESNGQPENNYKTTPPVLDSDGSFFLYSKLTVDKSRWQEGNVFSCSVMHEALHNHYTQKSLSLSLG
binds	3D7 scFv-Fc (Fc fusion) QVQLQQSGAELVKPGASVKMSCKASGYTFSFYNMHWVKRTPGRGLEWIGLIYPDNGDTSYNQKFKGKATLTADTSSSTAYMQLSSLTSEDSAVYYCARGGLDYWGQGTSLTVSSGGGGSGGGGSGGGGSEIVLTQSPASLAVSLGQRATISCKASQSVDYDGDSYMNWYQQKPGQPPKLLIYGISNRFSGVPDRFSGSGSGTDFTLKISTIKPEDLGMYYCLQGTHQPYTFGGGTKLEIKESKYGPPCPPCPAPEAAGGPSVFLFPPKPKDTLMISRTPEVTCVVVDVSQEDPEVQFNWYVDGVEVHNAKTKPREEQFNSTYRVVSVLTVLHQDWLNGKEYKCKVSNKGLPSSIEKTISKAKGQPREPQVYTLPPSQEEMTKNQVSLTCLVKGFYPSDIAVEWESNGQPENNYKTTPPVLDSDGSFFLYSKLTVDKSRWQEGNVFSCSVMHEALHNHYTQKSLSLSLG
binds	1G6 scFv-Fc (Fc fusion) EIQLQQSGAELVKPGASVKMSCKASGYTFRYYNMHWVKRTPGQGLEWIGLIYPDNGDTSYNQKFKGKATLTADTSSSTAYMQLSSLTSEDSAVYYCARGGLDYWGQGTSLTVSSGGGGSGGGGSGGGGSNIVMTQSHKFMSTSVGDRVSITCKASQDVNTDVAWYQQKPGQSPKLLIYSASYRYTGVPTRFTGSGSGTDFTFTISGVQAEDLADYYCQQHYNTPYTFGGGTKLELKESKYGPPCPPCPAPEAAGGPSVFLFPPKPKDTLMISRTPEVTCVVVDVSQEDPEVQFNWYVDGVEVHNAKTKPREEQFNSTYRVVSVLTVLHQDWLNGKEYKCKVSNKGLPSSIEKTISKAKGQPREPQVYTLPPSQEEMTKNQVSLTCLVKGFYPSDIAVEWESNGQPENNYKTTPPVLDSDGSFFLYSKLTVDKSRWQEGNVFSCSVMHEALHNHYTQKSLSLSLG
binds	1B8 scFv-Fc (Fc fusion) QIQLQQSGAELVKPGASVKMSCKASGYTFASYNLHWVKQTPGQGLEWIGLIYPENGDTSYNQKFKGKATLTADTSSTTAYIQLSSLTSEDSAVYFCARGGFDYWGQGTSLTVSSGGGGSGGGGSGGGGSDIKMTQSPASLSASVGETVTITCGASENIYGALNWYQRKQGKSPQLLIYGATNLADGMSSRFSGSGSGRQYSLKISSLHPDDVATYYCQNVLSTPYTFGGGTKLEIKESKYGPPCPPCPAPEAAGGPSVFLFPPKPKDTLMISRTPEVTCVVVDVSQEDPEVQFNWYVDGVEVHNAKTKPREEQFNSTYRVVSVLTVLHQDWLNGKEYKCKVSNKGLPSSIEKTISKAKGQPREPQVYTLPPSQEEMTKNQVSLTCLVKGFYPSDIAVEWESNGQPENNYKTTPPVLDSDGSFFLYSKLTVDKSRWQEGNVFSCSVMHEALHNHYTQKSLSLSLG
binds	1A3 scFv-Fc (Fc fusion) QVQLQQPGAELVKPGASVKMSCKASGYTFASYNLHWVKQTPGQGLEWIGLIYPENGDTSYNQKFKGKATLTADKSSSTAYIQLSSLTSEDSAVYFCARGGFDYWGQGTTLTVSQGGGGSGGGGSGGGGSDIQMTQSPASLSASVGETVTITCGASENIYGALNWYQRKQGKSPQLLIYGATNLADGMSSRFSGSGSGRQYSLKISSLHPDDVATYYCQNVLSTPYTFGGGTKLEIKESKYGPPCPPCPAPEAAGGPSVFLFPPKPKDTLMISRTPEVTCVVVDVSQEDPEVQFNWYVDGVEVHNAKTKPREEQFNSTYRVVSVLTVLHQDWLNGKEYKCKVSNKGLPSSIEKTISKAKGQPREPQVYTLPPSQEEMTKNQVSLTCLVKGFYPSDIAVEWESNGQPENNYKTTPPVLDSDGSFFLYSKLTVDKSRWQEGNVFSCSVMHEALHNHYTQKSLSLSLG
binds	3F11 scFv-Fc (Fc fusion) QVQLQQSGAELVKPGASVKMSCKASGYTFAPYNIHWVRQTPGQGLEWIGLIYPDNGDTSYNQKFKAKATLTADKSSSTAYMQLSSLTSEDSAVYYCARGGFDYWGQGTSLTVSSGGGGSGGGGSGGGGSDIVMTQSQKFMSTSVGDRVSVTCKASQNVGTNVAWYQQKPGQSPKALIYSASYRYSGVPDRFTGSGSGTDFTLTISNVQSEDLAEYFCQQHYSTPFTFGSGTKLEIKESKYGPPCPPCPAPEAAGGPSVFLFPPKPKDTLMISRTPEVTCVVVDVSQEDPEVQFNWYVDGVEVHNAKTKPREEQFNSTYRVVSVLTVLHQDWLNGKEYKCKVSNKGLPSSIEKTISKAKGQPREPQVYTLPPSQEEMTKNQVSLTCLVKGFYPSDIAVEWESNGQPENNYKTTPPVLDSDGSFFLYSKLTVDKSRWQEGNVFSCSVMHEALHNHYTQKSLSLSLG
binds	3E2 scFv-Fc (Fc fusion) EIQLQQSGAELVKPGASVKMSCKASGYTFSFYNMHWVKRTPGQGLEWIGLIYPDNGDTSYNQKFKGKATLTADTSSSTAYMQLSSLTSEDSAVYYCARGGLDYWGQGTSLTVSSGGGGSGGGGSGGGGSNIVMTQSQKFMSTSVGDRVSVTCKASQNVGTNVAWYQQKPGQSPKALIYSASYRYTGVPDRFTGSGSGTDFTFTISSVQAEDLAVYYCQQHYSTPYTFGGGTKLEIKESKYGPPCPPCPAPEAAGGPSVFLFPPKPKDTLMISRTPEVTCVVVDVSQEDPEVQFNWYVDGVEVHNAKTKPREEQFNSTYRVVSVLTVLHQDWLNGKEYKCKVSNKGLPSSIEKTISKAKGQPREPQVYTLPPSQEEMTKNQVSLTCLVKGFYPSDIAVEWESNGQPENNYKTTPPVLDSDGSFFLYSKLTVDKSRWQEGNVFSCSVMHEALHNHYTQKSLSLSLG
binds	2B2 scFv-Fc (Fc fusion) QLQLQQSGAELVKPGASVKMSCKASGYTFASYNLHWVKQTPGQGLEWIGLIYPENGDTSYNQKFKDKATLTADKSSTTAYIQLSSLASEDSAVYFCARGGFDYWGQGTTLTVSSGGGGSGGGGSGGGGSDIVMTQSQKFMSTSVGDRVSVTCKASQNVGTNVAWYQQKPGQSPKALIYSASYRYSGVPDRFTGSGSGTDYTLTISSVQAEDLALYYCQQHYSTPYTFGGGTKLELKESKYGPPCPPCPAPEAAGGPSVFLFPPKPKDTLMISRTPEVTCVVVDVSQEDPEVQFNWYVDGVEVHNAKTKPREEQFNSTYRVVSVLTVLHQDWLNGKEYKCKVSNKGLPSSIEKTISKAKGQPREPQVYTLPPSQEEMTKNQVSLTCLVKGFYPSDIAVEWESNGQPENNYKTTPPVLDSDGSFFLYSKLTVDKSRWQEGNVFSCSVMHEALHNHYTQKSLSLSLG
